Results reported in patent US20250026849A1 (ARCELLX, published 2025).
These are yes or no findings as the source states them, for the method shown. Some binding calls cover weakened binding; strength is not graded here.

By UniProt entry, the sequences of proteins in these tests, tags left out. Residues count along the entry.
UniProt Q02223, residues 1-54: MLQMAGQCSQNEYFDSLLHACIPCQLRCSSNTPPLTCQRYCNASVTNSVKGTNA

What was measured:
biotinylated BCMA [1] = target: biotinylated BCMA (UniProt Q02223); assay: flow cytometry: af03 CAR Jurkat cells loaded with Adapters, then biotinylated BCMA, detected with Streptavidin-PE (FIGS. 8A, 8B)
biotinylated BCMA [2] = target: biotinylated BCMA (UniProt Q02223); assay: flow cytometry: af03 CAR Jurkat cells loaded with Adapters, then biotinylated BCMA, detected with Streptavidin-PE

- binding (biotinylated BCMA [1]): binds
- binding (biotinylated BCMA [2]): binds
B1: bc40-p26 Adapter (SEQ ID NO: 1085) (designed binder)
chain: DEHHHHHHHHHHKLENLYFQGGGGGSMGSWSEFWVRLGAIRERLDALGGSEAELAAFEKEIAAFESELQAYKGKGNPEVEKLRYTAATIRRFLQAYRHNGGGGSGGGGSGGGGSLEKCFQTENPLECQDKGEEELQKYIQESQALAKRSCGLFQKLGEYYLQNAFLVAYTKKAPQLTSSELMAITRKMAATAATCCQLSEDKLLACGEGAADIIIGHLCIRHEMTPVNPGVGQCCTSSYANRRPCFSSLVVDETYVPPAFSDDKFIFHKDLCQAQGVALQTMKQEFLINLVKQKPQITEEQLEAVIADFSGLLEKCCQGQEQEVCFAEEGQKLISKTRAALGV
